The target of the data set is NFAT5 (nuclear factor of activated T cells 5) (UniProt Q9WV30). Kind of data set: EMSA supershift. To be noted: NFAT5 monoclonal antibody, low or high dose, IgG as control; Viagene non-radioactive EMSA kit, biotin probe, nuclear extract, 6% native polyacrylamide gel; pH and temperature not stated; protein in an extract. (In EMSA bound probe runs differently from free probe, usually more slowly.)

Chains of the proteins cited; added tags and fusions are not shown. Lines headed by an entry give the natural chain unless they say otherwise; changes in a name come on top.
UniProt Q9WV30: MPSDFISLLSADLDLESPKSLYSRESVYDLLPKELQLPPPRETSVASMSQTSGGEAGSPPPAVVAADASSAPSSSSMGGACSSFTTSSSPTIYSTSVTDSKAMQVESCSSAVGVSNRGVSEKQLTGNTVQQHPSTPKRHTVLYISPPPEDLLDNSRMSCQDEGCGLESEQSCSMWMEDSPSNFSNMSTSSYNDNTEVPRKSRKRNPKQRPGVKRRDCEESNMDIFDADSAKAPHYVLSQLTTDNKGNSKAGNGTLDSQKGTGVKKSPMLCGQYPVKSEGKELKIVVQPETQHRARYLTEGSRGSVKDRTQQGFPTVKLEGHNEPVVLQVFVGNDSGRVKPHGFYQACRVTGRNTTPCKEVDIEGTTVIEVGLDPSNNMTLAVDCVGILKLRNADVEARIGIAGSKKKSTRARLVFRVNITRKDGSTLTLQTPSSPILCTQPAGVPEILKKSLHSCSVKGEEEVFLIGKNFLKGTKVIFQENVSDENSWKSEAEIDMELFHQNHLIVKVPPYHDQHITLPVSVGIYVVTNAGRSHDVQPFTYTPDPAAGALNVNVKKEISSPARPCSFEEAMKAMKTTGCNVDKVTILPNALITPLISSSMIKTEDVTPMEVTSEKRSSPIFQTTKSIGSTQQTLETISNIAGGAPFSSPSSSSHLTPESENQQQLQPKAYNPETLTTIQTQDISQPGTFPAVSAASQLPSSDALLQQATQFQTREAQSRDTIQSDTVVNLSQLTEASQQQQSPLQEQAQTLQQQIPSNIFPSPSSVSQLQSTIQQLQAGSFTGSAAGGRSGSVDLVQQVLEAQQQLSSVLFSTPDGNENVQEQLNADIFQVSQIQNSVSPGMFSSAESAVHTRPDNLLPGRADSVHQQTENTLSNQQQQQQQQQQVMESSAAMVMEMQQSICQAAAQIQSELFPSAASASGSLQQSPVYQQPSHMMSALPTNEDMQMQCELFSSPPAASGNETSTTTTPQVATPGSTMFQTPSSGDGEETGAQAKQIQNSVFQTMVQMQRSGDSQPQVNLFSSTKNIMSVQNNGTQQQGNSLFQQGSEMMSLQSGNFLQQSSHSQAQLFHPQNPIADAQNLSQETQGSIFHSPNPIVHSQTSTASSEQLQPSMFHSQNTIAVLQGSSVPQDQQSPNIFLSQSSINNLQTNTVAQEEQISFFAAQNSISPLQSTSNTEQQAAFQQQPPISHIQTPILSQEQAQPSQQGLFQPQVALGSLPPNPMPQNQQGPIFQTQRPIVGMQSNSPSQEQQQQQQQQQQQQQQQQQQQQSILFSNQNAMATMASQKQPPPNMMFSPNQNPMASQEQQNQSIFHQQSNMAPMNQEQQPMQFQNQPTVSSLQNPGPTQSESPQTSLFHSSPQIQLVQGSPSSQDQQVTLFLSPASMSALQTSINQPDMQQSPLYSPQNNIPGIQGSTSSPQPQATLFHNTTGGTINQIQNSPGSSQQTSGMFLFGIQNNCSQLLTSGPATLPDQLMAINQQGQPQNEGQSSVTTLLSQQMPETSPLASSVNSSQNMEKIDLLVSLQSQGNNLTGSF

The exact form of at least one protein or probe is not confirmed. Where cells or extracts were used, other partners may take part.

For the sequence “TTTATCCCAGGGAAACCTTCACAGTGCATTC (double strand) [WNT4 promoter -3015 G allele probe (NFAT5 probe)]”, the binding result is “binds”.

Values taken from paper PMC9602048.
